How the values were obtained:
[1] = Volatile compound residue on mandarins during cold storage after dipping treatment
[2] = Volatile compound residue on mandarins during cold storage after spray treatment

With `OB1OCc2cc(F)ccc21` [5-fluoro-1-hydroxy-3H-2,1-benzoxaborole] the “Residue on treated mandarins” value ([1]; 0 days in cold storage) was 0.877 mg/kg, the “Residue on untreated mandarins mixed with treated mandarins” value (“Residue on untreated mandarins mixed” below) ([1]; 0 days in cold storage) was “Non-detectable” and the “Residue on treated mandarins” value ([1]; 3 days in cold storage) was 1.168 mg/kg. For the same molecule, the “Residue on untreated mandarins mixed” value ([1]; 3 days in cold storage) was 0.400 mg/kg, the “Residue on treated mandarins” value ([1]; 7 days in cold storage) was 1.182 mg/kg and the “Residue on untreated mandarins mixed” value ([1]; 7 days in cold storage) was 0.403 mg/kg. The “Residue on treated mandarins” value ([2]; 0 days in cold storage) was 0.649 mg/kg, the “Residue on untreated mandarins mixed” value ([2]; 0 days in cold storage) was “Non-” and the “Residue on treated mandarins” value ([2]; 3 days in cold storage) was 0.505 mg/kg. For the same molecule, the “Residue on untreated mandarins mixed” value ([2]; 3 days in cold storage) was 0.239 mg/kg, the “Residue on treated mandarins” value ([2]; 7 days in cold storage) was 0.278 mg/kg and the “Residue on untreated mandarins mixed” value ([2]; 7 days in cold storage) was 0.190 mg/kg.
